Assay: general procedure: Fmoc solid-phase peptide synthesis; TGR resin
Settings: whole synthesis, scale 0.05 mmol, one disulfide bridge

Acetyl-CYIQNCPLGK(COCH2CH2CONHNH2)—NH2
isolated mass: 24 mg
isolated yield: 37%
